Results published in paper PMC6318295, “Plant HP1 protein ADCP1 links multivalent H3K9 methylation readout to heterochromatin formation” (Cell Research, 2018).
“Also recorded” adds a separate entry of the source.

B1: ADCP1: plant-specific poly-Agenet protein comprising three tandem Agenet modular domains (protein)
chain: MLRPRRSLGVSSPAKQRKKAAPKNSMATRANRKRLPSYLKPGSAVEISSDEIGFRGSWYMGKVITIPSSSDKDSVKCQVEYTTLFFDKEGTKPLKEVVDMSQLRPPAPPMSEIEKKKKIVVGEEVDAFYNDGWWEGDVTEVLDDGKFSVFFRSSKEQIRFRKDELRFHREWVDGAWKPPLEETEEEEDESEEDKLDDSEDEEDILARVDLETTRAIAKQMFSSGTVVEVSSDEEGFQGCWFAAKVVEPVGEDKFLVEYRDLREKDGIEPLKEETDFLHIRPPPPRDEDIDFAVGDKINAFYNDGWWVGVVIDGMKHGTVGIYFRQSQEKMRFGRQGLRLHKDWVDGTWQLPLKGGKIKREKTVSCNRNVRPKKATEKQAFSIGTPIEVSPEEEGFEDSWFLAKLIEYRGKDKCLVEYDNLKAEDGKEPLREEVNVSRIRPLPLESVMVSPFERHDKVNALYNDGWWVGVIRKVLAKSSYLVLFKNTQELLKFHHSQLRLHQEWIDGKWITSFKSQKV

System: H3K9me3 NA
Experiment: Phase separation with H3K9me3 nucleosome array
Conditions: ADCP1 15 μM, H3K9me3 2.2 μM; HP1A and HP1α 25 μM with H3K9me3 0.84 μM; 1 h room temperature

Molecule | phase separation / puncta formation with H3K9me3 NA
HP1a: fly HP1a, Heterochromatin Protein 1 | H3K9me3 NA promotes phase transition of HP1α and HP1a in comparison with native NA
HP1α: human HP1α, Heterochromatin Protein 1 | H3K9me3 NA promotes phase transition of HP1α and HP1a in comparison with native NA
B1 | forms DNA-rich puncta with H3K9me3 NA; also recorded: form phase transition with ADCP1
